# Laboratory results reported in publication PMC10163288.
# Some of the results follow.
# B1: il10ra_site1_normal_mot_HHH_b1_03031_af2_000000117_0001_17_33_H_._HHH_b1_04343_af2_0001_0000100002_0000002_0_af2pred_0001 (protein)
# chain: SSSDEEVEERAEEVLLEAIFLAARKRNHEAVYRLLEIYARIAQEGDPELLKELEKLLEELRSSSS
# B2: il10ra_site1_sap_22_mot_HHH_b2_06812_af2_000000299_0001_41_56_H_._44e4ab65238a46b1c89eac5211a0a491_0001_1_0001_0000400022_0000001_0_0001 (protein)
# chain: SSSSDVEEEIEELLREAKKLAENGNPERATHLIIEAYALADQNNNEELREEVAELLRRLLDSSSS
# B3: il10ra_site1_sap_21_mot_HHH_b2_03220_af2_000000223_0001_23_40_H_._HHH_b1_04435_af2_0001_0000200016_0000001_0_0001 (protein)
# chain: SSSSTLEFSVKFALRTAEHAFRAGDEERARAQLEAILEHIKQAGDDELLREVQELLEELNSSSSS
# B4: il10ra_site1_normal_mot_HHH_b1_07478_000000026_0001_21_37_H_._ems_3hC_921_0001_0001_0000100012_0000001_0 (protein)
# chain: SSPEEAEKLLEEAEKLAEELNDKNALFIVKSLKKVLERAEENNDERAVELVEEAARVLLEQLQSS
# B5: il10ra_site1_normal_mot_HHH_b1_03094_000000294_0001_1_20_H_._HHH_b1_07059_af2_0001_0000100004_0000003_0 (protein)
# chain: SSSSSEELEELLRLSLEAFRLALRGDHEEARHLLEEALRIAEELGNERAVRVIEELLEAQSSSSS
# B6: il10ra_site1_sap_12_mot_2e6e1eda43ba67e2c9eb6e09d05f5a85_0001_000000079_0001_1_12_H_._HHH_eva_0086_0001_0000300018_0000001_0_0001 (protein)
# chain: DLEELVELLLEHARTANDEEVQRLIEEVLRLLKEDPEKAEELAEEALERTGNLILWQLLFLIRRH
# B7: il10ra_site1_sap_27_mot_HHH_b2_06864_af2_000000190_0001_1_20_H_._HHH_b2_06460_0001_0000200027_0000002_0_0001_af2pred_0001 (protein)
# chain: SSSSSDEEERKRALELLLIASRLGDKELAERLLRLAAKYLREGDPRYVEEMEELVEEVKKSSSSS
# B8: il10ra_site1_normal_mot_HHH_b2_00475_000000107_0001_44_57_H_._HHH_b1_06647_af2_0001_0000300012_0000001_0 (protein)
# chain: SSSSLEERVVELAFRAVRLLANGNPEEAEEVLEEARELAEELNDEELRRYVEIAEHFVEAHSSSS
# B9: il10ra_site1_sap_17_mot_HHH_b2_07688_000000045_0001_1_20_H_._HHH_b2_03262_af2_0001_0000600051_0000001_1_0001 (protein)
# chain: SSSSDEERHRLAELILRVARLMFRGNPEEAKELIEEAEELAKELGDERAERMLEDLERILNSSSS
# B10: il10ra_site1_normal_mot_b26a303360aa2756ef5b79665ce52f45_0001_000000179_0001_1_11_H_._HHH_b1_02177_af2_0001_0000200024_0000001_1 (protein)
# chain: SSSSDEELEKLFKLIREAAELAYRGNPEEAKQVLEEALELAEELGNEVIAFSIRHLLRDLSSSSS
# B11: il10ra_site1_sap_17_mot_HHH_b1_04514_000000156_0001_1_18_H_._HHH_b1_03809_0001_0000300008_0000001_0_0001 (protein)
# chain: SSSSDEAYRIAEEVIEEVIELQRNGNEEEAEKLLREAREEVEEANTMAALWSLRHLLRLLTSSSS
# B12: il10ra_site1_normal_mot_HHH_b1_05021_af2_000000167_0001_42_56_H_._HHH_b2_08048_0001_0000200012_0000001_0_af2pred_0001 (protein)
# chain: SSSSNEELRELIELLREAAELIHDGNPEEAREVIEKAKEIAKEANNELAKFILEWLEERVSSSSS
# B13: il10ra_site1_sap_16_mot_HHH_b1_07286_af2_000000054_0001_1_19_H_._HHH_b2_05721_0001_0000100004_0000001_0_0001 (protein)
# chain: SSSSSEEQEALELVLEAFHLALRGDEEEAEKVLEEALELAKEAGDERLARQIENMLKALKSSSSS
# B14: il10ra_site1_sap_25_mot_HHH_b1_06804_000000054_0001_40_54_H_._HHH_b2_04424_0001_0000100002_0000001_0_0001 (protein)
# chain: SVEEKVQEAIEEVVPDPEERRLLKLSLELQARQAGDPEQAARALAAFLYLRGNPELAELIEELLP
# B15: il10ra_site1_normal_mot_HHH_b1_00456_000000263_0001_1_17_H_._HHH_b2_03924_0001_0000300014_0000002_0_af2pred_0001 (protein)
# chain: SSSSSSDEEKEEAEELVEEARKIEDPKEVFKLLLEAFAIAVELNDDELRELVEKALRELSSSSSS
# B16: il10ra_site1_normal_mot_HHH_b2_01310_000000089_0001_41_55_H_._HHH_b2_01340_0002_0000100003_0000001_1_af2pred_dldesign_0_af2pred (protein)
# chain: SSSSSREELERLRAEVRALLEAGREEEAVEVLRELSRRATLLGDSEALQEAVELAKRIEESSSSS
# B17: il10ra_site1_sap_27_mot_HHH_b1_07645_000000183_0001_1_20_H_._HHH_b2_04569_0001_0000400011_0000002_0_0001 (protein)
# chain: SSSSSEEEEELEELIKKAEELLERGNPQEALEVLREAVRLAFQLGDPEALRKIWELVMRLKSSSS
# B18: il10ra_site1_sap_20_mot_HHH_b1_05088_af2_000000046_0001_20_36_H_._HHH_b1_01147_0001_0000300027_0000001_0_0001 (protein)
# chain: SSSSDLEEEIEKLREELEEARERGDKELALRLLLELLRLAYRTNDEELLQELWKIIREINSSSSS
# B19: il10ra_site1_sap_16_mot_HHH_b2_01235_000000294_0001_1_18_H_._HHH_b1_05662_0001_0000300032_0000002_0_0001_af2pred_0001 (protein)
# chain: SSSSSSYEHIVRIALETARIAAKRGDPELVERILRIAKLSAELANDPELERLVEEVERELSSSSS
# B20: il10ra_site1_sap_12_mot_HHH_b2_07913_000000228_0001_1_19_H_._HHH_b1_06663_0001_0000200030_0000001_0_0001_af2pred_0001 (protein)
# chain: SSSSSSREEILQLFVRISRLLDEGDEEEARHLLEELRELVEEYNDERAKKALRFLESLLSSSSSS
# B21: il10ra_site1_sap_25_mot_HHH_b1_00103_000000293_0001_1_15_H_._HHH_b2_08380_0001_0000200009_0000001_0_0001 (protein)
# chain: SSSSSDVAKIAQEALRAAYQKGDEEALQLIWEIIEEAAKGKIDEEEASKRLEEILEELESSSSSS
# B22: il10ra_site1_sap_13_mot_HHH_b1_00169_000000276_0001_1_18_H_._HHH_b2_00204_af2_0001_0000600016_0000001_0_0001_af2pred_0001 (protein)
# chain: SSSSDEVEEFAQEVAKRLAQLAREGDEEKVRELAEEAREELEKLGDPQLLLRLEALLRLINSSSS
# B23: il10ra_site1_sap_12_mot_HHH_b1_06348_000000162_0001_1_15_H_._HHH_b1_02734_0002_0000200011_0000001_0_0001 (protein)
# chain: SSSSDVQELLAIVARLMRKARDPEELRRLQRLSIEAQELLEEGDEEEARRVLEEAVEEYESSSSS
# B24: il10ra_site1_sap_23_mot_HHH_b2_04681_000000155_0001_43_57_H_._HHH_b1_05116_af2_0001_0000200010_0000001_0_0001 (protein)
# chain: SSSSSSDVEELLEEAQELRERGNPEEAIEVLLRALKHIYERGDEELLQELWELVERIGSSSSSSS
# Target: il10ra, Q13651
# Experiment: yeast display titration
row,Binder,apparent Kd
1,B1,inactive: no binding seen
2,B2,inactive: no binding seen
3,B3,inactive: no binding seen
4,B4,inactive: no binding seen
5,B5,inactive: no binding seen
6,B6,inactive: no binding seen
7,B7,inactive: no binding seen
8,B8,inactive: no binding seen
9,B9,inactive: no binding seen
10,B10,inactive: no binding seen
11,B11,inactive: no binding seen
12,B12,inactive: no binding seen
13,B13,inactive: no binding seen
14,B14,inactive: no binding seen
15,B15,inactive: no binding seen
16,B16,inactive: no binding seen
17,B17,inactive: no binding seen
18,B18,inactive: no binding seen
19,B19,inactive: no binding seen
20,B20,inactive: no binding seen
21,B21,inactive: no binding seen
22,B22,inactive: no binding seen
23,B23,inactive: no binding seen
24,B24,inactive: no binding seen

# Laid out differently: entries from further up.
row	Binder	apparent Kd
17	B17	inactive: no binding seen
18	B18	inactive: no binding seen
